The list does not hold the whole screen: it is rich in T/C values a quarter to a half above the control, in often repeated tests (any T/C) and in doses without a T/C. Further doses and runs are listed elsewhere. T/C: endpoint of the treated group in % of that of the vehicle group. Some doses have a count of surviving animals in place of a T/C: the source files T/C as zero there, which appears to mark a toxic dose or a test without result, not a measured value. Some doses without a T/C left all or most animals alive at the check, yet need not have been tolerated: the source hardly ever lists a survival T/C far under the control, and the zero likely stands for such cases as well. Counts of survivors are from the toxicity check (mostly the fifth day) where no day follows; animals may have died later. Schedules are NCI's codes, taken here to give the interval after Q, in days (D) or hours (H), and the number of doses after X. Some doses were run more than once; their values stand side by side, smallest first. Some schedule codes hold Z or #, which are not explained here. Where survival is the endpoint, the PubChem record calls one and a half times the control and up active, and a quarter to a half above the control has no call in these data; cut-offs in other NCI protocols can differ. Some T/C values carry the count of animals alive at the toxicity check (mostly the fifth day); where none is given, no animal had died by that day.
System: L1210 leukemia ip in BDF1 mice, survival T/C
Assay: NCI In Vivo Anticancer Drug Screen. Data for tumor model L1210 Leukemia (intraperitoneal) in B6D2F1 (BDF1) mice
Details: T/C endpoint: mean survival time, higher T/C = longer survival
[1] = dose: 100.0 mg/kg/injection, schedule: Q01DX009 (ip), vehicle: saline with Tween-80
[2] = dose: 50.0 mg/kg/injection, schedule: Q01DX009 (ip), vehicle: saline
[3] = dose: 200.0 mg/kg/injection, schedule: Q01DX009 (ip), vehicle: saline
[4] = dose: 400.0 mg/kg/injection, schedule: Q04DX002 (ip), vehicle: Klucel (hydroxypropylcellulose) (HPC)
[5] = dose: 200.0 mg/kg/injection, schedule: Q01DX009 (ip), vehicle: Klucel (hydroxypropylcellulose) (HPC)
[6] = dose: 400.0 mg/kg/injection, schedule: Q01DX009 (ip), vehicle: Klucel (hydroxypropylcellulose) (HPC)
[7] = dose: 400.0 mg/kg/injection, schedule: Q04DX003 (ip), vehicle: Klucel (hydroxypropylcellulose) (HPC)
[8] = dose: 200.0 mg/kg/injection, schedule: Q01DX009 (ip), vehicle: saline with Tween-80
[9] = dose: 400.0 mg/kg/injection, schedule: Q01DX009 (ip), vehicle: saline with Tween-80
[10] = dose: 400.0 mg/kg/injection, schedule: Q01DX001 (ip), vehicle: saline with Tween-80
[11] = dose: 400.0 mg/kg/injection, schedule: Q01DX001 (ip), vehicle: saline

Structure (SMILES): CCN(CC)Cc1nc2nc(Cl)c(Cl)nc2[nH]1
- survivor count [1]: 3 of 6
- survivor count (dose: 200.0 mg/kg/injection, schedule: Q04DX003 (ip), vehicle: saline with Tween-80): 2 of 6
- survivor count (dose: 400.0 mg/kg/injection, schedule: Q04DX003 (ip), vehicle: saline with Tween-80): 3 of 6

Structure (SMILES): CCCCCCCCCCCCCCC[N+](C)(C)C
- survivor count [2]: 0 of 6
- survivor count (dose: 100.0 mg/kg/injection, schedule: Q01DX009 (ip), vehicle: saline): 0 of 6
- survivor count [3]: 0 of 6
- survivor count (dose: 400.0 mg/kg/injection, schedule: Q01DX009 (ip), vehicle: saline): 0 of 6

Structure (SMILES): CCCCN1C(=O)C2C3CCC(O3)C2C1=O (centres undefined)
- survivor count [4]: 1 of 3

Structure (SMILES): O=C(Nc1ccc(C(Cl)(Cl)Cl)cc1)Nc1cc(Cl)ccc1Cl
- survivor count [5]: 3 of 6
- survivor count [6]: 0 of 6

Structure (SMILES): CCC(C)C(C#N)(CCN(CC)CC)c1ccccc1 (centres undefined)
- survivor count [5]: 1 of 6
- survivor count [7]: 0 of 6

Structure (SMILES): O=C(c1ccccc1)C1(Br)CCCCC1
- survivor count [3]: 6 of 6

Structure (SMILES): CCC(=O)c1ccc2c(c1)N(CCCN(C)C)c1ccccc1S2
- survivor count [1]: 3 of 6

Structure (SMILES): CNC(=N)c1ccc(NC(=N)c2ccc(NC(=N)c3ccc(NC(=O)Nc4ccc(C#N)cc4)cc3)cc2)cc1
- T/C (dose: 6.5 mg/kg/injection, schedule: Q01DX015 (ip), vehicle: water): 128 % of control
- T/C (dose: 32.5 mg/kg/injection, schedule: Q01DX001 (ip), vehicle: water): 128 % of control
- T/C (dose: 40.0 mg/kg/injection, schedule: Q01DX001 (ip), vehicle: water): 126 % of control
- survivor count (dose: 68.0 mg/kg/injection, schedule: Q01DX Z (ip), vehicle: water): 0 of 6
- survivor count (dose: 136.0 mg/kg/injection, schedule: Q01DX Z (ip), vehicle: water): 0 of 6

Structure (SMILES): Cc1cc(OC(=O)Nc2ccccc2C(F)(F)F)cc(C)c1Cl
- survivor count [1]: 6 of 6
- survivor count [8]: 6 of 6
- survivor count [9]: 5 of 6 and 6 of 6

Structure (SMILES): COc1cc(/C=C(/C#N)[N+](=O)[O-])ccc1O
- survivor count (dose: 12.5 mg/kg/injection, schedule: Q01DX009 (ip), vehicle: DMSO): 6 of 6
- survivor count (dose: 100.0 mg/kg/injection, schedule: Q04DX003 (ip), vehicle: DMSO): 3 of 6
- survivor count (dose: 200.0 mg/kg/injection, schedule: Q04DX003 (ip), vehicle: DMSO): 0 of 6
- survivor count (dose: 400.0 mg/kg/injection, schedule: Q04DX003 (ip), vehicle: DMSO): 0 of 6

Structure (SMILES): CC1(C)N=C(N)N=C(N)N1c1ccc(CCCCc2ccc(S(=O)(=O)F)cc2Cl)c(Cl)c1
- T/C (dose: 10.89 mg/kg/injection, schedule: Q04DX003 (ip), vehicle: saline): 130 % of control
- T/C (dose: 12.5 mg/kg/injection, schedule: Q01DX009 (ip), vehicle: saline): 131 % of control
- T/C (dose: 15.0 mg/kg/injection, schedule: Q01DX009 (ip), vehicle: saline with Tween-80): 132 % of control
- T/C (dose: 25.0 mg/kg/injection, schedule: Q01DX009 (ip), vehicle: saline): 125 % of control
- T/C (dose: 36.0 mg/kg/injection, schedule: Q01DX009 (ip), vehicle: saline with Tween-80): 125 % of control
- T/C (dose: 37.5 mg/kg/injection, schedule: Q01DX009 (ip), vehicle: saline with Tween-80): 135 % of control
- T/C (dose: 37.5 mg/kg/injection, schedule: Q04DX003 (ip), vehicle: saline with Tween-80): 129 % of control
- T/C (dose: 50.0 mg/kg/injection, schedule: Q01DX009 (ip), vehicle: Klucel (hydroxypropylcellulose) (HPC)): 132 and 135 % of control
- T/C [2]: 127 % of control
- T/C (dose: 75.0 mg/kg/injection, schedule: Q04DX003 (ip), vehicle: saline with Tween-80): 133 % of control
- T/C (dose: 75.0 mg/kg/injection, schedule: Q04DX003 (ip), vehicle: saline): 135 % of control
- T/C (dose: 100.0 mg/kg/injection, schedule: Q01DX009 (ip), vehicle: Klucel (hydroxypropylcellulose) (HPC)): 128 and 132 % of control
- T/C (dose: 133.0 mg/kg/injection, schedule: Q04DX003 (ip), vehicle: Klucel (hydroxypropylcellulose) (HPC)): 125 % of control
- survivor count (dose: 150.0 mg/kg/injection, schedule: Q01DX009 (ip), vehicle: saline with Tween-80): 5 of 6
- T/C (dose: 150.0 mg/kg/injection, schedule: Q04DX003 (ip), vehicle: saline): 147 % of control
- survivor count [3]: 5 of 6
- T/C (dose: 200.0 mg/kg/injection, schedule: Q04DX003 (ip), vehicle: Klucel (hydroxypropylcellulose) (HPC)): 131 and 132 % of control
- survivor count (dose: 300.0 mg/kg/injection, schedule: Q01DX009 (ip), vehicle: saline with Tween-80): 0 of 6
- survivor count (dose: 300.0 mg/kg/injection, schedule: Q04DX003 (ip), vehicle: saline with Tween-80): 6 of 6
- T/C (dose: 300.0 mg/kg/injection, schedule: Q04DX003 (ip), vehicle: saline): 125 % of control [5 of 6 alive]

Structure (SMILES): O=C(Nc1ccc(F)c(Cl)c1)OCC1CCCO1 (centres undefined)
- survivor count (dose: 25.0 mg/kg/injection, schedule: Q01DX009 (ip), vehicle: Klucel (hydroxypropylcellulose) (HPC)): 3 of 3
- survivor count [7]: 6 of 6

Structure (SMILES): O=C1N(CCO)CNC1(c1ccccc1)c1ccccc1
- survivor count [10]: 3 of 6

Structure (SMILES): CC(C[P+](c1ccccc1)(c1ccccc1)c1ccccc1)C(O)(C(=O)c1ccccc1)c1ccccc1 (centres undefined)
- survivor count (dose: 100.0 mg/kg/injection, schedule: Q01DX001 (ip), vehicle: saline with Tween-80): 0 of 6
- survivor count (dose: 200.0 mg/kg/injection, schedule: Q01DX001 (ip), vehicle: saline with Tween-80): 0 of 6
- survivor count [10]: 0 of 6

Structure (SMILES): CC(O)CN(CCN(CC(C)O)CC(C)O)CCN(CC(C)O)CC(C)O.O=S(=O)([O-])[O-].[Cu+2] (centres undefined)
- survivor count (dose: 20.0 mg/kg/injection, schedule: Q01DX001 (ip), vehicle: saline): 0 of 4
- survivor count (dose: 40.0 mg/kg/injection, schedule: Q01DX001 (ip), vehicle: saline): 0 of 4
- survivor count (dose: 50.0 mg/kg/injection, schedule: Q01DX001 (ip), vehicle: saline): 0 of 4
- survivor count (dose: 80.0 mg/kg/injection, schedule: Q01DX001 (ip), vehicle: saline): 0 of 4
- survivor count (dose: 100.0 mg/kg/injection, schedule: Q01DX001 (ip), vehicle: saline): 0 of 4
- survivor count (dose: 200.0 mg/kg/injection, schedule: Q01DX001 (ip), vehicle: saline): 0 of 4
- survivor count [11]: 0 of 4

Structure (SMILES): Cc1c(C(=O)NN)no[n+]1[O-]
- survivor count (dose: 100.0 mg/kg/injection, schedule: Q04DX002 (ip), vehicle: Klucel (hydroxypropylcellulose) (HPC)): 1 of 3
- survivor count (dose: 200.0 mg/kg/injection, schedule: Q04DX002 (ip), vehicle: Klucel (hydroxypropylcellulose) (HPC)): 0 of 3
- survivor count [4]: 0 of 3

Structure (SMILES): S=c1[nH][nH]c(=S)s1
- survivor count [5]: 0 of 6
- survivor count [3]: 1 of 3
- survivor count [6]: 0 of 6

Structure (SMILES): CCC(C)(C)C(=O)Nc1cccc(OC(=O)NC)c1
- survivor count [1]: 6 of 6
- survivor count [8]: 6 of 6

Structure (SMILES): CCCCCCCCCCCC[N+](CC)(CC)CC(=O)O
- survivor count (dose: 75.0 mg/kg/injection, schedule: Q01DX009 (ip), vehicle: saline with Tween-80): 2 of 6
- survivor count (dose: 100.0 mg/kg/injection, schedule: Q04DX003 (ip), vehicle: saline): 3 of 6
- survivor count (dose: 115.0 mg/kg/injection, schedule: Q01DX009 (ip), vehicle: saline with Tween-80): 1 of 6
- survivor count (dose: 170.0 mg/kg/injection, schedule: Q01DX009 (ip), vehicle: saline with Tween-80): 3 of 6
- survivor count (dose: 200.0 mg/kg/injection, schedule: Q04DX003 (ip), vehicle: saline): 3 of 6
- survivor count [11]: 2 of 6

Structure (SMILES): c1ccc(Cc2[nH]c3ccccc3c2-c2ccccc2)cc1
- survivor count [9]: 3 of 3

From PubChem BioAssay AID248 (DTP/NCI, 2004)
